Results taken from PMC7782499, “Progerinin, an optimized progerin-lamin A binding inhibitor, ameliorates premature senescence phenotypes of Hutchinson-Gilford progeria syndrome” (Communications Biology, 2021).
Values joined by “and” are separate entries in the source; they are usually repeats but may differ in a detail not shown here. Identical values can stand only once. Further values from the same series stand in other lists.

Test system: Lmna G609G/+ mouse
Assay: Body weight of Lmna G609G/+ mice
Format: in vivo
Settings: oral administration
Description: Fig. 3 In vivo favorable effect of SLC-D011. A Gross morphology of Lmna^G609G/G609G mice (10 weeks old) was ameliorated after injection with SLC-D011. At the same age, the experimental group (D011) of mice were larger than vehicle-injected control (Con) subjects regardless of gender. B, C SLC-D011 increases body weight B and extends life span C of Lmna^G609G/G609G progeria model mouse (Con: n = 8; SLC-D011: n = 8). Compared with 14.8 weeks of average (ave) life span with maximum (max) life span of 15.5 weeks, 20 mg/kg of intraperitoneal (i.p) injection (twice a week) of SLC-D011 could extend the life span upto 19 weeks (max = 21 weeks). Lmna^G609G/G609G mice were injected with SLC-D011 from age of 5-week old, *p < 0.05. D Gross morphology of SLC-D011 injected Lmna^G609G/+ mouse. […] E SLC-D011 increases body weights of Lmna^G609G/+ mice (Con: n = 10; SLC-D011: n = 11), *p < 0.05. F Favorable effect of SLC-D011 on life span of Lmna^G609G/+ mice. Compared with vehicle-injected control group (ave = 46.7 weeks and max = 48 weeks), SLC-D011 treatment obviously extended the average life span to 63 weeks (max = 64 weeks). The injection was started from 32 weeks old, **p < 0.001. “Con” means vehicle (a solvent composed of DMSO and PBS)-injected mouse group. TEXT PRINTED IN THE PICTURE: (C) D011: Kaplan-Meier survival curve in Lmna^G609G/G609G: Ave=19; Kaplan-Meier survival curve in Lmna^G609G/G609G: Max=21 | (F) D011: Kaplan-Meier survival curve in Lmna^G609G/+: Ave=63; Kaplan-Meier survival curve in Lmna^G609G/+: Max=64 DOUBTS OF THE COPYIST ABOUT THIS PICTURE: Panels C and F: the Ave/Max labels are not printed with a group name. They are assigned to D011 (solid curve) or Con (dashed curve) only by their position beside the curves. / Panel C Ave=14.8, Max=15.5 and panel F Ave=46.7, Max=48 stand beside the dashed Con curve. They are left out because Con is the control group, not a substance. / No unit is printed with the Ave/Max values. Only the axis reads Age (weeks).
Animal experiments were performed in a facility certified by the Association for Assessment and Accreditation of Laboratory Animal Care in compliance with animal policies approved by Pusan National University. The mouse work was performed under the study protocol PNU-2019-2181, as approved by the Institutional Animal Care and Use Committee. Lmna^G609G/609G mice were generated by timed mating of heterozygous Lmna^G609G/+ provided by Carlos López-Otín (Universidad de Oviedo, Asturias, Oviedo, Spain). SLC-D011 was mixed with dimethyl sulfoxide (DMSO) and phosphate-buffered saline (PBS). It was then intraperitoneally injected into mice (20 mg/kg twice per week from 5-week-old). SLC-D011 and lonafarnib were orally administrated to mice daily at a concentration of 10 mg/ml in monoolein-based solution. Lonafarnib was generously provided by Merck, the Progeria Research Foundation (PRF) and the PRF Lonafarnib Pre-clinical Drug Supply Program. Control mice were treated with monoolein-based solution alone in the same way. Lmna^G609G/609G mice were treated with clear chemical solution throughout the life span, starting from 5 weeks of age. Lmna^G609G/+ mice were treated via intraperitoneal and oral administrations, starting from 32 weeks of age.
Fig. S10. Or al administration of SLC-D011 suppresses premature aging features of LmnaG609G/+ mi c e . A.
Gross morphology of SLC-D011 treated Lmna G609G/+ mice at 36 weeks old. B. Oral administration of SLC-
D011 increases body weight s of LmnaG609G/+ mi c e (untreated: n=11; SLC-D011: n=12), * p<0.05. C. […]
intensity of H3K9me3 levels in lung, liver, and kidney tissues of age-matched Lmn a +/+ mouse, untreated
LamnG609G/+ mouse and two progerinin- treated LmnaG609G/+ mice (n = 2 independent experiments; one
Student’s t -test), **p < 0.001,*p< 0.05, N.S: not significant .AU, arbitrary units.
Fig. S12. […] A. SLC-D011, compar ed to lonafarnib, reduces […]

CC1(C)Oc2cc3oc(=O)ccc3cc2C[C@@H]1OC/C=C/c1ccccc1 [SLC-D011]
Lmna G609G/+ body weight (week 36, Ave): 1
Lmna G609G/+ body weight (week 36, individual mouse): 1
Lmna G609G/+ body weight (week 36, individual mouse, relative body weight): 1
Lmna G609G/+ body weight (week 37, Ave): 1.027
Lmna G609G/+ body weight (week 37, individual mouse): 0.9545 and 1 and 1.053 and 1.105
Lmna G609G/+ body weight (week 38, Ave): 1.017
Lmna G609G/+ body weight (week 38, individual mouse): 0.9545 and 0.9565 and 1.053 and 1.043 and 1
Lmna G609G/+ body weight (week 38, individual mouse, relative body weight): 0.9545 and 0.9565 and 1.053 and 1.043 and 1
Lmna G609G/+ body weight (week 39, Ave): 1.053
Lmna G609G/+ body weight (week 39, individual mouse): 1.045 and 1.043 and 1.053 and 1.087 and 1
Lmna G609G/+ body weight (week 40, Ave): 1.063
Lmna G609G/+ body weight (week 40, individual mouse): 1 and 1.043 and 1.105 and 1.087 and 1.053
Lmna G609G/+ body weight (week 40, individual mouse, relative body weight): 1 and 1.043 and 1.105 and 1.087 and 1.053
Lmna G609G/+ body weight (week 41, Ave): 1.0252
Lmna G609G/+ body weight (week 41, individual mouse): 1 and 1.043 and 1.087 and 0.9545
Lmna G609G/+ body weight (week 42, Ave): 0.9995
Lmna G609G/+ body weight (week 42, individual mouse): 0.9545 and 1 and 1.043
Lmna G609G/+ body weight (week 42, individual mouse, relative body weight): 0.9545 and 1 and 1.043
Lmna G609G/+ body weight (week 43, Ave): 0.9538
Lmna G609G/+ body weight (week 43, individual mouse): 0.9091 and 0.9565 and 0.9474 and 1 and 0.9545 and 0.9615
Lmna G609G/+ body weight (week 44, Ave): 0.9298
Lmna G609G/+ body weight (week 44, individual mouse): 0.9091 and 0.913 and 0.8947 and 1 and 0.9545 and 0.9615
Lmna G609G/+ body weight (week 44, individual mouse, relative body weight): 0.9091 and 0.913 and 0.8947 and 1 and 0.9545 and 0.9615
Lmna G609G/+ body weight (week 45, Ave): 0.9156
Lmna G609G/+ body weight (week 45, individual mouse): 0.8636 and 0.913 and 0.8947 and 0.9565 and 0.8696 and 0.9615
Lmna G609G/+ body weight (week 46, Ave): 0.9013
Lmna G609G/+ body weight (week 46, individual mouse): 0.9091 and 0.8696 and 0.8947 and 0.913 and 0.9565 and 0.9615
Lmna G609G/+ body weight (week 46, individual mouse, relative body weight): 0.9091 and 0.8696 and 0.8947 and 0.913 and 0.9565 and 0.9615
Lmna G609G/+ body weight (week 47, Ave): 0.8765
Lmna G609G/+ body weight (week 47, individual mouse): 0.8182 and 0.8696 and 0.8421 and 0.913 and 0.9565
Lmna G609G/+ body weight (week 48, Ave): 0.862
Lmna G609G/+ body weight (week 48, individual mouse): 0.8182 and 0.8261 and 0.8421 and 0.913 and 0.8696 and 0.9565
Lmna G609G/+ body weight (week 48, individual mouse, relative body weight): 0.8182 and 0.8261 and 0.8421 and 0.913 and 0.8696 and 0.9565
Lmna G609G/+ body weight (week 49, Ave): 0.8548
Lmna G609G/+ body weight (week 49, individual mouse): 0.8182 and 0.8261 and 0.8421 and 0.8696 and 0.9565
Lmna G609G/+ body weight (week 50, Ave): 0.8331
Lmna G609G/+ body weight (week 50, individual mouse): 0.8182 and 0.7826 and 0.8421 and 0.8696 and 0.8261
Lmna G609G/+ body weight (week 50, individual mouse, relative body weight): 0.8182 and 0.7826 and 0.8421 and 0.8696 and 0.8261
Lmna G609G/+ body weight (week 51, Ave): 0.8094
Lmna G609G/+ body weight (week 51, individual mouse): 0.7727 and 0.7826 and 0.7895 and 0.8696 and 0.8261
Lmna G609G/+ body weight (week 52, Ave): 0.7877
Lmna G609G/+ body weight (week 52, individual mouse): 0.7727 and 0.7391 and 0.7895 and 0.8261
Lmna G609G/+ body weight (week 52, individual mouse, relative body weight): 0.7727 and 0.7391 and 0.7895 and 0.8261
Lmna G609G/+ body weight (week 53, Ave): 0.7913
Lmna G609G/+ body weight (week 53, individual mouse): 0.7727 and 0.7391 and 0.7895 and 0.8261 and 0.7826
Lmna G609G/+ body weight (week 54, Ave): 0.7841
Lmna G609G/+ body weight (week 54, individual mouse): 0.7727 and 0.7391 and 0.7895 and 0.8261 and 0.7826
Lmna G609G/+ body weight (week 54, individual mouse, relative body weight): 0.7727 and 0.7391 and 0.7895 and 0.8261 and 0.7826
Lmna G609G/+ body weight (week 55, Ave): 0.748
Lmna G609G/+ body weight (week 55, individual mouse): 0.7273 and 0.7391 and 0.7368 and 0.7826 and 0.7895
